This note sets out measurements from PMC5377818 (The Journal of Biological Chemistry, 2017).

Protein sequences, listed by entry. Tags and fused reporters are not part of them.
UniProt P30281: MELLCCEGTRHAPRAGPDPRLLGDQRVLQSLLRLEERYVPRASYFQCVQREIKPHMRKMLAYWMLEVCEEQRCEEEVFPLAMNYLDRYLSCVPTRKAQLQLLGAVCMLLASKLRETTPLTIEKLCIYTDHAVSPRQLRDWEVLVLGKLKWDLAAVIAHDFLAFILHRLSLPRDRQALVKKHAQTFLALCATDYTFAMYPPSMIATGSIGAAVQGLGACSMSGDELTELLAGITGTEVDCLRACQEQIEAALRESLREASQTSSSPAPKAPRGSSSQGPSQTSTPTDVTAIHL
UniProt P05780: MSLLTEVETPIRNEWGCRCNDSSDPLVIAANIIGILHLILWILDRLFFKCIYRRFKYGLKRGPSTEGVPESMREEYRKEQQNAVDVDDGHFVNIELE

These are yes or no findings as the source states them, for the method shown. In cells and extracts the contact can be indirect. Some entries that bind do so weakly or less than the wild type.

The assay addresses FLAG- and c-Myc-tagged human cyclin D3 (human) (UniProt P30281). Description: co-IP.

For “Influenza A/WSN/33 virus M2 protein made in infected cells (from UniProt P05780 1-97)”, the binding result is on record as “binds”.
